Laboratory results: paper PMC12529230, “The Lrs14‐Like AbfR1 Homolog From Metallosphaera sedula Is a Nucleoid‐Organizing Protein” (MicrobiologyOpen, 2025)
Where a chain is given by its changes, count along the chain named. The exact form of at least one protein or probe is not confirmed. For some assays here: Weaker means in comparison with the reference protein, sequence or condition of that experiment. Protein sequences can lack the tags named with them. For some assays here: At least one verdict was read from the data and is not stated in words by the source.

Experiments:
Experiment in all cases: EMSA
[1] = target: T1, AbfR1Ms (Metallosphaera sedula DSM5348) (UniProt A4YIR2); conditions: apparent, range over p/o probes, individual value only in Figure A6, salmon sperm competitor DNA; EMSA: 20 mM Tris-HCl pH 8.0, 50 mM NaCl, 0.4 mM EDTA, 0.1 mM DTT, 1 mM MgCl2, 12.5% glycerol, 25 ug/mL sonicated salmon sperm DNA, 25 min at 37 C; recombinant protein; residues 1-115; protein details: C-terminal His; label: 5'-32P on one strand
T1 sequence (looked up): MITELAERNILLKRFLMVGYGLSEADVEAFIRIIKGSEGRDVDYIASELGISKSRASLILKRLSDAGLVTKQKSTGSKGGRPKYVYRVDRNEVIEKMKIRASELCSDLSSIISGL

[2] = target: T2, AbfR1Sa R55A (Sulfolobus acidocaldarius) (UniProt Q4JBH1); conditions: larger apparent decrease than K61A; EMSA: 20 mM Tris-HCl pH 8.0, 50 mM NaCl, 0.4 mM EDTA, 0.1 mM DTT, 1 mM MgCl2, 12.5% glycerol, 25 ug/mL sonicated salmon sperm DNA, 25 min at 37 C; recombinant protein; label: 5'-32P on one strand; probe letters rebuilt from the primers and the genome
T2 sequence (looked up, limits assumed): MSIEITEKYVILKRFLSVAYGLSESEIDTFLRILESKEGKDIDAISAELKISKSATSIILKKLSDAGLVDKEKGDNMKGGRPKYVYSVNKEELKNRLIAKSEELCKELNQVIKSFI

[3] = target: T3, AbfR1Sa K61A (Sulfolobus acidocaldarius) (UniProt Q4JBH1); conditions: apparent decrease in affinity vs wild type; EMSA: 20 mM Tris-HCl pH 8.0, 50 mM NaCl, 0.4 mM EDTA, 0.1 mM DTT, 1 mM MgCl2, 12.5% glycerol, 25 ug/mL sonicated salmon sperm DNA, 25 min at 37 C; recombinant protein; label: 5'-32P on one strand; probe letters rebuilt from the primers and the genome
T3 sequence (looked up, limits assumed): T2 sequence (looked up, limits assumed) with A55R, K61A

Sequence | binding result [1] | binding result [2] | binding result [3]
AGTATAATATAAAACTTCATAAGAAAAACTGATAGATAAAAACTTTTTAAACTATTCGAGTTATATTTATGTGATTCTTATGCCACCCTTTAGTAGAGTT (double strand) [p/o accABMs] | binds |  | 
CCCTTAATCTCCTTATTGCTTCGTCTAATCTATCCTGCTGCTCTTTTAATTTTAAAGATATTTCAGTTATCGCTTTGGACAAATGCACCTTTCTCTTTCTATCACTATTAAAAATTATCGATAACTTATCAAACATCCTATGTCACTAATTCTTCATAAAGTATTTATTACCCTTACTGGTATTGGAACAGACACTTCAGACTTATTACCCTCGTTCTTATTTGACTGTTCTGTTGACGTGTTTAATGAGGCAGAAGGCTTAAGTTCTATTACCTCCTTATCCAATCCGTCAAGTTTATCTAGAGTTTTCTTTATATCGTCTCTTTCCAATGCATAA (double strand) [p/o cdvA] |  | binds more weakly | binds more weakly
CCTACAAAGGTTGCCTAATCACAATAAAACTTTAAAAACAATAAAAACTAAATGTTAAACGGTGCAATTTAATTGATAACTGAGCTCGCAGAAAGAAATA (double strand) [p/o abfR1Ms] | binds |  | 
TACTCATGCACCGCCTTAGTGGGAAATATTAAATAAAAAACATTATATCTTAAATATCTTCTCATTTTAAACCATTTATCCTATAACTGTCACTTTTCCA (double strand) [p/o arlXSa] | binds |  | 
